This sample is rich in variants without activity.

For 167 variants, yeast fitness results are on record in the RNAGym collection of RNA variant scans (doi:10.1126/science.aae0568).

To fix the notation:
B1: tRNA (parent)
chain: GUUCCGUUGGCGUAAUGGUAACGCGUCUCCCUCCUAAGGAGAAGACUGCGGGUUCGAGUCCCGUACGGAACG

The variants in the series derive from B1. In words: yeast fitness relative to wild type (ratio to wild type); higher = fitter; tRNA-Arg(CCU), competitive growth, 37 C, YPD. The method, boiled down:
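Variants of the tRNA-Arg(CCU) gene were chemically synthesised with a 3% per-site mutation rate across 69 sites and placed at the native genomic locus in Saccharomyces cerevisiae. Six parallel replicates of the pooled strains were competed in YPD at 37°C for 24 hours, and gene amplicons from the start and end populations were read by 100-nucleotide paired-end sequencing. Darwinian fitness relative to wild type was derived from changes in genotype frequencies. Genotypes required ≥ 100 starting reads, and estimates < 0.5 were set to 0.5.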
For A15U C27U C34U A42U, the yeast fitness was at most 0.5.

Turning to A14G A57U A65U, the yeast fitness is at most 0.5.

C4A A36C A57G A65U: the yeast fitness was at most 0.5.

Take A37C A57G: the yeast fitness is 0.665. For C4A C30G A40U G44A G50A C55U C66U the value was at most 0.5; for C11U A15C G56A C66U, at most 0.5.

A20G A36G U54A A70G: the yeast fitness is at most 0.5. For U13C C22U C34G A36U A65C the value was at most 0.5.

In the case of A14C C27G A69U, the yeast fitness was 0.561. As for C11U C46U C55A, the figure is at most 0.5; as for C30A C55A G67A, at most 0.5. For G10A C27G G51A U54C C55U A65C the value was at most 0.5.

For C11G A21C C34U A40G, the yeast fitness is at most 0.5. For U26G A37U G58A the value was at most 0.5; for C24G U26A C29G U32A, 0.516; for U32C A40U G56C A65C, at most 0.5. For C11A U28A G67C, the yeast fitness was at most 0.5. Regarding U13A G50C A69U, the yeast fitness was at most 0.5. As for C34U G51C, the yeast fitness is at most 0.5. As to C5A U13A A45C, the yeast fitness was 0.576. For C11U G38U A40U G50C G58C U59A the value was at most 0.5; for C22G C24A G44C G51A G58C U59A, at most 0.5.

With A20U C49G U54C C55A, the yeast fitness is at most 0.5. For G50A U59A the value was 0.831; for G10A C49U U54C C66A A69C, at most 0.5; for U2A C11U U16C C30A, at most 0.5.

A15C A37C A57C: the yeast fitness is at most 0.5.

On to U7A C29A G58A C61G A70U, for which the yeast fitness was 0.665. For C22G C34G C61G the value was at most 0.5; for G18C C22G G56A A65U, at most 0.5; for U7A U16C G17A C29U C31A C33A C66G G67U, at most 0.5. For U2G C11U G17C A20C C60U C61U the value was at most 0.5; for G10A U59C, 0.721; for U26A C55U, 0.65.

Take C33G U54A U59A G67A: the yeast fitness is at most 0.5. For G9C C11U G48C C62G A65U the value was at most 0.5; for U8C C31G U53A, at most 0.5.

For the variant C11U A36U A70U, the yeast fitness came out at 0.694.

For G6A G38C G67U, the yeast fitness is at most 0.5. For the variant A37G A42U A65C A69C, the yeast fitness is at most 0.5. Regarding G18A G23C C61A, the yeast fitness was at most 0.5.

With U7A G50C A57C C61U, the yeast fitness is at most 0.5. For C5U U7A G10A the value was at most 0.5; for U28G G38C A40G U59C, at most 0.5; for U13C C31U A69U, 0.835. As for C11G A21U U32A C55G, the figure is at most 0.5. Consider C5U A21U U26G C27U C29G G50C, for which the yeast fitness is at most 0.5. As for C22U A36C G67A, the figure is at most 0.5; as for C5U C34G C55G, at most 0.5; as for G6A U26A C33A G51C C62U, 0.591. As for G10A U28A A42U, the figure is at most 0.5; as for U3A A15C C31G C33G, at most 0.5. As for C33U G44A C61U, the figure is 0.675; as for G48A U53C C60A C61U, at most 0.5; as for C24G C27U C33U G50C C66U, at most 0.5. Turning to U32C C34U A45U, the yeast fitness turned out to be 0.662. As for U13C G48A U53C C60A, the figure is at most 0.5; as for G6A G17A C60G G63A A65U C66U, at most 0.5. For the variant C5G C27G C33U C49U G56C, the yeast fitness was at most 0.5.

On to U2A C5G U35C, for which the yeast fitness is at most 0.5. For U8A U54C the value was 0.657. For C24G U35G C62U the value was at most 0.5; for C11A U28G C33A A45G, at most 0.5; for G10A C60U G67A, at most 0.5. For C4A G17A A42G C61G the value was at most 0.5. On to C33A A57G G68C, for which the yeast fitness was at most 0.5. For the variant C5G G17C C62U G63C A70C, the yeast fitness was at most 0.5. As for U2C A20U, the figure is 0.91; as for G12C U16C A42C, at most 0.5; as for G9C A36U C46G, at most 0.5.

Consider C11G U19C A45U U64G A70C, for which the yeast fitness was at most 0.5. As to C5G U7A, the yeast fitness was 0.792. On to G6C A15G A37C U64C, for which the yeast fitness was at most 0.5. As for A14G U26A A37U G41A C62U, the figure is at most 0.5; as for G18A U19A G23C, at most 0.5; as for A37C C46U C62A A69U, at most 0.5.

On to G23C A42C G50C C66U, for which the yeast fitness was at most 0.5. For A37G C46A the value was 0.774; for C4A C22G U32C G51A, at most 0.5; for C31A C33U G39C, at most 0.5.

On to A21G C22A C55A U64A, for which the yeast fitness is at most 0.5.

Consider A21C G56A G67U, for which the yeast fitness was at most 0.5. For U2A U28G A37G C62A the value was at most 0.5. As for C4U U53C C61G G67A A69C, the figure is at most 0.5; as for U2C C27G U28A A43U A69U, 0.541; as for A37G A65G, 0.695. C4A C49G C62U: the yeast fitness was at most 0.5. For C29G A36U C49U C60U the value was at most 0.5; for C11U C29U C55A U64C, at most 0.5. For A20U C62U A65C the value was 0.682; for C34A G50A, 0.742. As for C4A G52A U53A G67U, the figure is at most 0.5; as for C11U C30U U54A, at most 0.5.

Turning to C29A G41A A43C, the yeast fitness was determined as 0.55. Turning to C4G A15U A21G G44A, the yeast fitness was at most 0.5. As for A40C A42U C61G, the figure is at most 0.5; as for C31U C33G A65C, at most 0.5; as for U8C C30U U59C A69C, at most 0.5. For U32C C33U C62U A65G A70U the value was at most 0.5; for U16G C24U U28C A36C U59C A65C, at most 0.5; for U13A C22G G25C C27U C30G A36G C55A A69U, at most 0.5.

For the variant C11U C31G C46A G67U, the yeast fitness was at most 0.5.

Regarding C4U U16C A36U C49U G58C C66U, the yeast fitness is at most 0.5. For A15G A69C the value was 0.999; for C55G U59A G63A C66U, at most 0.5; for C11A U13A A42U C55A A69U, at most 0.5. In the case of C4A A15C C66U, the yeast fitness is at most 0.5. As for U35C A42U G67A, the figure is at most 0.5. As for A37G A40G G68U, the figure is at most 0.5.

Turning to G10A U16G A69U, the yeast fitness is at most 0.5. For A20U A40U C55U A65C G67C A70G the value was at most 0.5; for U8C A42U C62A C66U, at most 0.5. For C11A A45C C60A C62G the value was at most 0.5; for U2C C4A U32C A43C, at most 0.5; for G6A C11A C61A G67C, at most 0.5. As for G25A C29G A43C C61A, the figure is at most 0.5; as for G6A A43C U54C A65G, at most 0.5. For C5A U7C C55U A69C, the yeast fitness is at most 0.5. As for C22A C30A, the figure is 0.686. As for G17A C22A U47C U54C C55G C61A, the figure is at most 0.5; as for U7C U19A C62A, at most 0.5; as for C11G C29G U35C U47A, at most 0.5.

Consider A14G C55A A57U G58C, for which the yeast fitness is at most 0.5. As for C4G G51C U54A A70U, the figure is at most 0.5; as for A40C G41C A70G, at most 0.5. For U13G U26C C49G the value was at most 0.5. As for U3A C4U U7A C29U U32G A43U G44C C61U, the figure is at most 0.5; as for A20G C34U A40U C61G, at most 0.5; as for G18C C49G C61U, at most 0.5. On to C4U G10C A14C C27G G51C, for which the yeast fitness is at most 0.5. For C29A A37U C46G, the yeast fitness was at most 0.5. For G10A C11A C30G the value was at most 0.5; for C5G U35C G44A A70C, at most 0.5; for G10C C22A C24G G52A, at most 0.5. Take C4U A14C A15U G52C C55U: the yeast fitness was at most 0.5. As for C4A A14U A20C U28G G68C, the figure is at most 0.5. As for C49A G63C A69G, the figure is at most 0.5; as for U16A C24G C29G C31G C61A, at most 0.5.

On to U19A G25A A37U C55U, for which the yeast fitness is at most 0.5. For the variant G12C C27A C66A, the yeast fitness was at most 0.5. For G17A A20C C24U the value was 0.562; for G6C U13C A14G A20C U64A G67A, at most 0.5; for U2C U35C C46U C55G, at most 0.5. For C31U G48A G68U A70C the value was at most 0.5; for C11G C27A C34G, at most 0.5; for C34G G52A C62U, 0.6.

For the variant U3A C4G G6A U26G, the yeast fitness was at most 0.5. As for U2G G39C C49G A57U A69U, the figure is at most 0.5; as for G12A A15U G67A A70G, at most 0.5; as for U32G C33G A36G A70U, at most 0.5. In the case of G6A G39C A43G G44C A45U C49G G67C, the yeast fitness was at most 0.5. With C11U C29U G58U C61U, the yeast fitness was at most 0.5. For U8G C62G the value was 0.533.

Take A14C C55U A69C: the yeast fitness is at most 0.5. As for A36G G38C G63A, the figure is at most 0.5; as for C31A C55G A65C G67A, at most 0.5; as for U13C G48A C62A, 0.689. As for G10C A45C C46A C66U, the figure is 0.643; as for C11U C33G G38C, at most 0.5. For G50A G63C the value was 0.737; for C30U U47A A70G, at most 0.5.

As to C4A U28C, the yeast fitness came out at 0.64. For C24G C27U G50A G52A C66U the value was at most 0.5. As for C30G C33G C34U A42U, the figure is at most 0.5; as for A20G G44A, 0.962. Take G12A A21U C66G: the yeast fitness was at most 0.5.

Take U2C G39C C61G: the yeast fitness was at most 0.5.
